Data as given in paper PMC6712396.
Results are given in words; binding and its absence hold for the method and conditions named. In cells and extracts the contact can be indirect. Some binding calls cover weakened binding; strength is not graded here. Tags and fused reporters may be left off the sequences shown.

T1: FK506-binding protein 5 (FKBP5) fused to a FLAG epitope tag (human) (UniProt Q13451)
T1 sequence: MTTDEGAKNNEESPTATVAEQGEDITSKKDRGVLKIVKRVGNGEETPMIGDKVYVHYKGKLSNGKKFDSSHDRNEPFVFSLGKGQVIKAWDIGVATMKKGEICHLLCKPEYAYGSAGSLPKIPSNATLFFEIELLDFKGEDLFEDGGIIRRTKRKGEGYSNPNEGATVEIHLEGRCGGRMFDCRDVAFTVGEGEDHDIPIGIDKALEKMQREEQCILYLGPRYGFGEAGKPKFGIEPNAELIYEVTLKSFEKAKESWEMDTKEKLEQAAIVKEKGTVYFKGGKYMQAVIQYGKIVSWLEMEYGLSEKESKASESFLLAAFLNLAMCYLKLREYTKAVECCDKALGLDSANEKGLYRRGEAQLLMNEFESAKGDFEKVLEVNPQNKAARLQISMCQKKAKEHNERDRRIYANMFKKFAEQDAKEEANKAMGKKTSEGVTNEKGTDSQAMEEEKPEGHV

T2: interferon (IFN)-induced protein 44 (IFI44) fused to a hemagglutinin (HA) epitope tag (human) (UniProt Q8TCB0)
T2 sequence: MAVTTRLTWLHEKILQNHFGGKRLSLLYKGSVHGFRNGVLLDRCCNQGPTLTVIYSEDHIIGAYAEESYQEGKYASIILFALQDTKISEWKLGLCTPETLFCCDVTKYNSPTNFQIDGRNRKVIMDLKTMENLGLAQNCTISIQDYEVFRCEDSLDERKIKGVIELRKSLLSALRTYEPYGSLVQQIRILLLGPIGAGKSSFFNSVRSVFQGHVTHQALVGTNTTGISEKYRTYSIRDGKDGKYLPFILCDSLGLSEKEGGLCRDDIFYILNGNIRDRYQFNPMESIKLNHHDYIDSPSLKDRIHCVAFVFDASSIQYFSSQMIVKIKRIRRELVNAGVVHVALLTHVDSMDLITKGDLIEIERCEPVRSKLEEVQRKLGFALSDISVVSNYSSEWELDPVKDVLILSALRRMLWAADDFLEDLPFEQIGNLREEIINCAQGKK


Experiments:
[1] = biological target: T1, FK506-binding protein 5 (FKBP5) fused to a FLAG epitope tag (human); assay: co-IP; 293T cells cotransfected 30 h; cleared lysates in Co-IP buffer incubated overnight at 4°C with anti-FLAG affinity resin (pulls down FKBP5-FLAG); three washes in TBS with 0.1% SDS; Western blot with anti-tag antibodies; for IKKβ and IKKε in the presence or absence of IFI44-HA
[2] = biological target: T2, interferon (IFN)-induced protein 44 (IFI44) fused to a hemagglutinin (HA) epitope tag (human); assay: co-IP; 293T cells cotransfected 30 h; cleared lysates in Co-IP buffer incubated overnight at 4°C with anti-HA affinity resin (pulls down IFI44-HA); three washes in TBS with 0.1% Tween 20; Western blot with anti-tag antibodies
[3] = biological target: T2, interferon (IFN)-induced protein 44 (IFI44) fused to a hemagglutinin (HA) epitope tag (human); assay: co-IP

binding [1]	Binder	binding [2]	binding [3]
binds	IKKβ fused to a MYC epitope tag (enzyme, UniProt O14920-1 1-756) MSWSPSLTTQTCGAWEMKERLGTGGFGNVIRWHNQETGEQIAIKQCRQELSPRNRERWCLEIQIMRRLTHPNVVAARDVPEGMQNLAPNDLPLLAMEYCQGGDLRKYLNQFENCCGLREGAILTLLSDIASALRYLHENRIIHRDLKPENIVLQQGEQRLIHKIIDLGYAKELDQGSLCTSFVGTLQYLAPELLEQQKYTVTVDYWSFGTLAFECITGFRPFLPNWQPVQWHSKVRQKSEVDIVVSEDLNGTVKFSSSLPYPNNLNSVLAERLEKWLQLMLMWHPRQRGTDPTYGPNGCFKALDDILNLKLVHILNMVTGTIHTYPVTEDESLQSLKARIQQDTGIPEEDQELLQEAGLALIPDKPATQCISDGKLNEGHTLDMDLVFLFDNSKITYETQISPRPQPESVSCILQEPKRNLAFFQLRKVWGQVWHSIQTLKEDCNRLQQGQRAAMMNLLRNNSCLSKMKNSMASMSQQLKAKLDFFKTSIQIDLEKYSEQTEFGITSDKLLLAWREMEQAVELCGRENEVKLLVERMMALQTDIVDLQRSPMGRKQGGTLDDLEEQARELYRRLREKPRDQRTEGDSQEMVRLLLQAIQSFEKKVRVIYTQLSKTVVCKQKALELLPKVEEVVSLMNEDEKTVVRLQEKRQKELWNLLKIACSKVRGPVSGSPDSMNASRLSQPGQLMSQPSTASNSLPEPAKKSEELVAEAHNLCTLLENAIQDTVREQDQSFTALDWSWLQTEEEEHSCLEQAS		
binds	IKKε fused to a MYC epitope tag (enzyme, UniProt Q14164-1 1-716) MQSTANYLWHTDDLLGQGATASVYKARNKKSGELVAVKVFNTTSYLRPREVQVREFEVLRKLNHQNIVKLFAVEETGGSRQKVLVMEYCSSGSLLSVLESPENAFGLPEDEFLVVLRCVVAGMNHLRENGIVHRDIKPGNIMRLVGEEGQSIYKLTDFGAARELDDDEKFVSVYGTEEYLHPDMYERAVLRKPQQKAFGVTVDLWSIGVTLYHAATGSLPFIPFGGPRRNKEIMYRITTEKPAGAIAGAQRRENGPLEWSYTLPITCQLSLGLQSQLVPILANILEVEQAKCWGFDQFFAETSDILQRVVVHVFSLSQAVLHHIYIHAHNTIAIFQEAVHKQTSVAPRHQEYLFEGHLCVLEPSVSAQHIAHTTASSPLTLFSTAIPKGLAFRDPALDVPKFVPKVDLQADYNTAKGVLGAGYQALRLARALLDGQELMFRGLHWVMEVLQATCRRTLEVARTSLLYLSSSLGTERFSSVAGTPEIQELKAAAELRSRLRTLAEVLSRCSQNITETQESLSSLNRELVKSRDQVHEDRSIQQIQCCLDKMNFIYKQFKKSRMRPGLGYNEEQIHKLDKVNFSHLAKRLLQVFQEECVQKYQASLVTHGKRMRVVHETRNHLRLVGCSVAACNTEAQGVQESLSKLLEELSHQLLQDRAKGAQASPPPIAPYPSPTRKDLLLHMQELCEGMKLLASDLLDNNRIIERLNRVPAPPDV		
	FK506-binding protein 5 (FKBP5) fused to a FLAG epitope tag (protein, UniProt Q13451-1 1-457) MTTDEGAKNNEESPTATVAEQGEDITSKKDRGVLKIVKRVGNGEETPMIGDKVYVHYKGKLSNGKKFDSSHDRNEPFVFSLGKGQVIKAWDIGVATMKKGEICHLLCKPEYAYGSAGSLPKIPSNATLFFEIELLDFKGEDLFEDGGIIRRTKRKGEGYSNPNEGATVEIHLEGRCGGRMFDCRDVAFTVGEGEDHDIPIGIDKALEKMQREEQCILYLGPRYGFGEAGKPKFGIEPNAELIYEVTLKSFEKAKESWEMDTKEKLEQAAIVKEKGTVYFKGGKYMQAVIQYGKIVSWLEMEYGLSEKESKASESFLLAAFLNLAMCYLKLREYTKAVECCDKALGLDSANEKGLYRRGEAQLLMNEFESAKGDFEKVLEVNPQNKAARLQISMCQKKAKEHNERDRRIYANMFKKFAEQDAKEEANKAMGKKTSEGVTNEKGTDSQAMEEEKPEGHV	binds	binds

Binder	binding [1]	binding [2]	binding [3]
interferon (IFN)-induced protein 44 (IFI44) fused to a hemagglutinin (HA) epitope tag (protein, UniProt Q8TCB0-1 1-444) MAVTTRLTWLHEKILQNHFGGKRLSLLYKGSVHGFRNGVLLDRCCNQGPTLTVIYSEDHIIGAYAEESYQEGKYASIILFALQDTKISEWKLGLCTPETLFCCDVTKYNSPTNFQIDGRNRKVIMDLKTMENLGLAQNCTISIQDYEVFRCEDSLDERKIKGVIELRKSLLSALRTYEPYGSLVQQIRILLLGPIGAGKSSFFNSVRSVFQGHVTHQALVGTNTTGISEKYRTYSIRDGKDGKYLPFILCDSLGLSEKEGGLCRDDIFYILNGNIRDRYQFNPMESIKLNHHDYIDSPSLKDRIHCVAFVFDASSIQYFSSQMIVKIKRIRRELVNAGVVHVALLTHVDSMDLITKGDLIEIERCEPVRSKLEEVQRKLGFALSDISVVSNYSSEWELDPVKDVLILSALRRMLWAADDFLEDLPFEQIGNLREEIINCAQGKK	binds		
